Results as given in patent US20250295642A1, “FLUOROQUINOXALINONE DERIVATIVE FOR SELECTIVELY INHIBITING PARP1” (MEDSHINE DISCOVERY INC., priority 2022, published 2025).
The structures given here were assigned with low confidence; some may be wrong.

By UniProt entry, the sequences of proteins in these tests, tags left out.
UniProt Q9UGN5, whole entry: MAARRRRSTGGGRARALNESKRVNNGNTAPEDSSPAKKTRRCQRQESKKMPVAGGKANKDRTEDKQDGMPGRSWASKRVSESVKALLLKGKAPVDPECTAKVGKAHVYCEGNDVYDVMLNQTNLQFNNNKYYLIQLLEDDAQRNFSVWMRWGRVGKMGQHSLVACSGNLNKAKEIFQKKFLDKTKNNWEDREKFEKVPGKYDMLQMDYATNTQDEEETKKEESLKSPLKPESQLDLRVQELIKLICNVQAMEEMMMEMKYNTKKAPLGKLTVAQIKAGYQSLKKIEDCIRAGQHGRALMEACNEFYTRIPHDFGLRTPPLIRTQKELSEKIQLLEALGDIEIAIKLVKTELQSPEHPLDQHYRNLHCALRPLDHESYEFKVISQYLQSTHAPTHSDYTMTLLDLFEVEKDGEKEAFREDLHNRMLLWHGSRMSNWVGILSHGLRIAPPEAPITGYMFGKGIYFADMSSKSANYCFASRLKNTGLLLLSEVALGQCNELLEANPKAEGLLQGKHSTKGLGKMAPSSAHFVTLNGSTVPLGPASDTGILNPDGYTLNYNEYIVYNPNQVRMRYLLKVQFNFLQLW

Assays:
[1] = test system: MDA-MB-436 cells (BRCA1 mutation); assay: Anti-proliferation assay on MDA-MB-436 cells (BRCA1 mutation); settings: read-out: IC50, proliferation inhibition on MDA-MB-436 cells (BRCA1 mutation); incubated for 7 days, chemiluminescent cell viability
MDR1-MDCK II cell line = assay: Permeability evaluation on MDR1-MDCK II cell line; assay type: in vitro ADME
PARP2 = PARP2 (Homo sapiens (Human), UniProt Q9UGN5); assay: Binding activity between compound and PARP2, fluorescence polarization assay; settings: read-out: PARP2 IC50, 3 nM PARP2, 5 nM fluorescent probe, 4 hours at room temperature

| SMILES | IC50 [1] [nM] | Permeability conclusion (MDR1-MDCK II cell line) | Permeability Papp A to B (MDR1-MDCK II cell line; 2.00 μM, 150 minutes, pH 7.40) | Permeability Papp B to A (MDR1-MDCK II cell line; 2.00 μM, 150 minutes, pH 7.40) | IC50 (PARP2) [nM] |
| --- | --- | --- | --- | --- | --- |
| CNC(=O)c1ccc(N2CCN(Cc3ccc4c([nH]c(=O)c5cccnc54)c3F)CC2)c(Cl)n1 | 0.41 | High | 10.6 10^−6 cm/s | 7.2 10^−6 cm/s |  |
| CNC(=O)c1ccc(N2CCN(Cc3ccc4c([nH]c(=O)c5cc(F)cnc54)c3F)CC2)c(F)n1 | 0.56 |  |  |  | > 20000 |
